Measured values as given in PubChem BioAssay AID1439 (NMMLSC, 2008).
Hit rate of the full screen: of about 220,000 compounds, about 770 (0.35%) were called active. The inconclusive results got no clear call from the source; some entries with a clear call stand among them for comparison. Rule as the data show it: active = binding response below about 49% or above about 150%; inconclusive = no clear call, values can overlap the other calls; inactive = in between.

Amino acid sequences for entries named in this document (tags omitted).
UniProt P09471, whole entry, looked up: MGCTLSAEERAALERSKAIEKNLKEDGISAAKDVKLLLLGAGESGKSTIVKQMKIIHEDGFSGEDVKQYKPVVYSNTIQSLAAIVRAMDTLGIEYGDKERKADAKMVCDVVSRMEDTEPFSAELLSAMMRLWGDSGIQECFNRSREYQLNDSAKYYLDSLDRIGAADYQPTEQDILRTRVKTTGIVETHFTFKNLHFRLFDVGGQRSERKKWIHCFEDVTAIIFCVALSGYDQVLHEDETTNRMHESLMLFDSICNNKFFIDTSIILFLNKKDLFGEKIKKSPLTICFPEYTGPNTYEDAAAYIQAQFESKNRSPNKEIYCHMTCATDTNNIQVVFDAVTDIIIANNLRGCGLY

Each molecule was assayed against Guanine nucleotide-binding protein G(o) subunit alpha (Homo sapiens) (UniProt P09471) (assay: compounds changing RGS7 association with Galphao – biochemical, multiplexed bead flow cytometry, primary screen (AID 1439;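 also: fluorescent Galphao held in activated GDP-AlF4 state binding bead-coupled RGS7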)). Conditions: at 10 µM, actives lie on both sides.

SMILES | binding response (% of control)
Cc1ccc(-n2c(O)c(/C=N/Nc3ccccc3)c(=O)[nH]c2=O)cc1C | inconclusive: 88.2%
CCCCOCCCN1C(C)=CC(=C2C(=O)NC(=S)NC2=O)C=C1C | inconclusive: 41.2%
CC[C@@]1(O)C(=O)OCc2c1cc1n(c2=O)Cc2cc3ccccc3nc2-1 | inconclusive: 73.4%
O=C(CN1CCCCC1)c1ccc(F)cc1 | inconclusive: 88.6%
c1ccc(CCN2CCC(N3CCN(c4ccccc4)CC3)CC2)cc1 | inactive: 101%
O=c1c2ccccc2nc(Cc2cccc([N+](=O)[O-])c2)n1-c1ccc(O)cc1 | inconclusive: 88%
Cc1ccc(NP(=O)(c2ccccc2)c2nc3ccccc3s2)cc1 (stereo unspecified) | inconclusive: 87.9%
O=P(Nc1cccc(F)c1)(Oc1ccccc1F)Oc1ccccc1F | inconclusive: 102%
CC1C(C)N1CC(O)Cn1ccnc1[N+](=O)[O-] (stereo unspecified) | inconclusive: 98.9%
CC1C2Cn3c(nc4ccccc43)C1N(C)O2 (stereo unspecified) | inconclusive: 135%
Nc1c(C(=O)NCC2CCCO2)c2nc3ccccc3nc2n1Cc1ccco1 (stereo unspecified) | inconclusive: 83%
NC(=S)/N=C/c1c(O)[nH]c(=O)[nH]c1=O | inactive: 85.7%
COc1cccc(CCNCc2c(F)cccc2F)c1 | inconclusive: 98.8%
CC(=O)Cc1c[nH]c2ccccc12 | inconclusive: 117%
CCN1CCN(c2cc(N3CCCC3)c(F)cc2[N+](=O)[O-])CC1 | inactive: 112%
COc1ccccc1NC1(C#N)CCCCC1 | inconclusive: 105%
C=CCn1c(O)c(/C=C2\C=Nc3ccccc32)c(=O)[nH]c1=O | inconclusive: 107%
O=c1[nH]c(=O)n(-c2ccccc2)c(O)c1N=Nc1ccc(Br)cc1 | inconclusive: 96.2%
CCOc1ccc(N2C(=O)NC(=O)/C(=C\c3ccccc3[N+](=O)[O-])C2=O)cc1 | inconclusive: 77.8%
O=C(CN1CCCC1)Nc1ccc(Cl)cc1C(=O)c1ccccc1 | inconclusive: 89.6%
NCCCC(=O)OC1N=C(c2ccccc2Cl)c2cc(Br)ccc2NC1=O (stereo unspecified) | inconclusive: 99.8%
C1=C(c2c[nH]c3ccccc23)CCNC1 | active: 151% [activator]
O=P(CCl)(Nc1ccccc1)C(Cl)(Cl)Cl (stereo unspecified) | inconclusive: 96.4%
C[N+]1(C)C2CCC1CC(OC(=O)c1ccccc1)C2 (stereo unspecified) | inconclusive: 66.1%
O=c1[nH]c(O)c(C=Nc2ccccc2Oc2ccccc2)c(=O)[nH]1 | inconclusive: 96.1%
O=c1[nH]c(=O)n(-c2cccc3ccccc23)c(O)c1/C=N/N1CCCCCC1 | inconclusive: 103%
